Assay results reported in patent US20120266268A1.
Results are given in words; binding and its absence hold for the method and conditions named. Some entries that bind do so weakly or less than the wild type.

By UniProt entry, the sequences of proteins in these tests, tags left out. Where a name states a change or a piece, a line headed by the entry shows the natural chain unless it says otherwise.
UniProt Q9C9K7: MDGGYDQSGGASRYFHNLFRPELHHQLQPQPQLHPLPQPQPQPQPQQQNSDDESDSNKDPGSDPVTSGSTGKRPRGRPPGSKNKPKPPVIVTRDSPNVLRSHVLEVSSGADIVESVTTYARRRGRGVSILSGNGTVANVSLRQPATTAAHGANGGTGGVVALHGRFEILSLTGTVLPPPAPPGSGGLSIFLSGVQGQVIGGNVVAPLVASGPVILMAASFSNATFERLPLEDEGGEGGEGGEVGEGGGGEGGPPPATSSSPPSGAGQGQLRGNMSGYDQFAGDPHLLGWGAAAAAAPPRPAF
UniProt Q9S7C9: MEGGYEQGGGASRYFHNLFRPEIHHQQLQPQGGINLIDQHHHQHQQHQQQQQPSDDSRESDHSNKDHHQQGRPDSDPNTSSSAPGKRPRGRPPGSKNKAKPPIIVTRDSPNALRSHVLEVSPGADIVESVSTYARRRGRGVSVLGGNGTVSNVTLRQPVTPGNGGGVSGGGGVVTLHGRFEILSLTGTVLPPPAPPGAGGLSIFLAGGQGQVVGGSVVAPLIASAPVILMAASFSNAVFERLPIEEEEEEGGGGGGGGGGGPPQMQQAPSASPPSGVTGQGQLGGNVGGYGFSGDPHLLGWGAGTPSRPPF

Experiments:
Test in all cases: BiFC (split YFP), onion epidermal cells
[1] = biological target: Arabidopsis thaliana SOB3 (SUPPRESSOR OF PHYTOCHROME B-4 #3) protein (Arabidopsis thaliana) (UniProt Q9C9K7)
[2] = biological target: Arabidopsis thaliana ESC (ESCAROLA) protein (Arabidopsis thaliana) (UniProt Q9S7C9)
[3] = biological target: sob3-6 protein (Arabidopsis thaliana SOB3 with R77>H in the AT-hook core) (Arabidopsis thaliana) (UniProt Q9C9K7)

Measured: binding

sob3-6 protein (Arabidopsis thaliana SOB3 with R77>H in the AT-hook core) (from UniProt Q9C9K7 1-302)
binds: all assays above
